The source of these data is the supplement of paper PMC10032668.

Amino acid sequences for entries named in this document (tags omitted).
TUBB6, Q9BUF5, UniProt Q9BUF5, whole entry: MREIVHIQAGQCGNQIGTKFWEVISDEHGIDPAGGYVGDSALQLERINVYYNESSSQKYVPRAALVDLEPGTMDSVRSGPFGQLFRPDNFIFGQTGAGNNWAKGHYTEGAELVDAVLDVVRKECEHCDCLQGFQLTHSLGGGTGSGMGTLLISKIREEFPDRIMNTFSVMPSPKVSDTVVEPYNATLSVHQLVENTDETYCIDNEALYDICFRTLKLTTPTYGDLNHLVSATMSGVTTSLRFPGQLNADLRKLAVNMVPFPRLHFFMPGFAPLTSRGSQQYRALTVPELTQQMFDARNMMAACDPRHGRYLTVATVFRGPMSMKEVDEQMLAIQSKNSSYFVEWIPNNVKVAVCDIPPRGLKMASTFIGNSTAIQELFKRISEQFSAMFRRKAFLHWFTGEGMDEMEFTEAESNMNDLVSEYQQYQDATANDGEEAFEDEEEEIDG
ADAM29, Q9UKF5, UniProt Q9UKF5, whole entry: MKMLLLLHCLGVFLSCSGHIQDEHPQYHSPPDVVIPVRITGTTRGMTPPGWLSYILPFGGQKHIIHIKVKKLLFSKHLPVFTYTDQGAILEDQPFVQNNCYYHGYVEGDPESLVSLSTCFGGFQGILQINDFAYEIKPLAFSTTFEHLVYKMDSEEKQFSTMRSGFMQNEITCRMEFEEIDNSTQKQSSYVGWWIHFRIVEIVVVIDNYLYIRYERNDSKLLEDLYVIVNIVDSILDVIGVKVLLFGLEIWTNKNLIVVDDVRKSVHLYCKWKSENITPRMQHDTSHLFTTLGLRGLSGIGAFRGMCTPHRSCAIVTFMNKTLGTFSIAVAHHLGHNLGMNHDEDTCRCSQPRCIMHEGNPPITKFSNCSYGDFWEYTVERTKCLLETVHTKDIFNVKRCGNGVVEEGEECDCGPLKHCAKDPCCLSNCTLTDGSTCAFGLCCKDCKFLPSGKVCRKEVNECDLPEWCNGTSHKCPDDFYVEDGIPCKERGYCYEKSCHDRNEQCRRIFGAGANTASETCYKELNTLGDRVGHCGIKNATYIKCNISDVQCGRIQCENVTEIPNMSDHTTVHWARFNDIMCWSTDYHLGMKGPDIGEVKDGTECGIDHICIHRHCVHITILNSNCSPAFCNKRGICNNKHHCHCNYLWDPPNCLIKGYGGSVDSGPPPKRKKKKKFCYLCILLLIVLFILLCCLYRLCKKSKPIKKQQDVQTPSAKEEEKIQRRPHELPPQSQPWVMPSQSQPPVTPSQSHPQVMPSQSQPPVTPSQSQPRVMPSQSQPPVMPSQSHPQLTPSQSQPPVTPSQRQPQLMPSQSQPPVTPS
PPP2R5D, Q14738, UniProt Q14738, whole entry: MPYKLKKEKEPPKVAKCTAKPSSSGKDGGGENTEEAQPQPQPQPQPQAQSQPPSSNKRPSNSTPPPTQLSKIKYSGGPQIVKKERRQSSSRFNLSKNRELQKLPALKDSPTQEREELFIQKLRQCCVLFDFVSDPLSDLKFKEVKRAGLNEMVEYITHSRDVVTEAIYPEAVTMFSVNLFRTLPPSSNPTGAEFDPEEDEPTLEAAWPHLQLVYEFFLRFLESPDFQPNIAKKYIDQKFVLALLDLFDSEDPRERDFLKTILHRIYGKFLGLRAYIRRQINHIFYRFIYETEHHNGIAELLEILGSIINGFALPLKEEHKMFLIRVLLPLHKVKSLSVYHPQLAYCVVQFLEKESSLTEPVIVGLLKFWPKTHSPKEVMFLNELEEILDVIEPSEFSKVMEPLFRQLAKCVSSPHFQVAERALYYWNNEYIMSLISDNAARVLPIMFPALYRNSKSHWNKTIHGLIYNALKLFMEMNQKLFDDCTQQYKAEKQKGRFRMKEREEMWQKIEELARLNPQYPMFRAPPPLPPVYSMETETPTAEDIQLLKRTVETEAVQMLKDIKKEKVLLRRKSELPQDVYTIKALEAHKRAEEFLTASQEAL

Common to all, as to experiment: PRISMA enrichment of interactor (LFQ) in peptide spot vs all other peptide spots (log2 fold change); higher = stronger / more specific binding of the interactor to the peptide
One assay has as its target ADAR, P55265. As to the method: (§1)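 PRISMA: 15-aa overlapping tiles (offset 8 aa) of 60 microproteins, plus SOS1/GLUT1 control peptides, were spot-synthesized on cellulose membranes in triplicate. Membranes were incubated with benzonase-treated HEK293T lysate, and bound proteins were identified by LC-MS/MS with LFQ. Enrichment is the log2 fold change of each protein in one spot versus all other spots. Only interactors passing the significance cutoff are listed.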

A further assay addresses DHX9, Q08211. As to the method: as §1
Another assay deals with FIP1L1, Q6UN15. How it is done: as §1
In a further assay the target is GNL3L, Q9NVN8. As to the method: as §1
For another assay, the target named is HCFC1, P51610. How it is done: as §1
Another assay addresses MPO, P05164. How it is done:
as §1

The next assay addresses MRPL4, Q9BYD3. How it is done: as §1
For another assay, the target named is NDUFB10, O96000. How it is done:
as §1

The next assay has as its target PSMC4, P43686. How it is done: as §1
For a further assay, the target named is TMEM256-PLSCR3. How it is done: as §1
Another assay has as its target TUBB6, Q9BUF5. As to the method: as §1
The next assay addresses ANP32A, P39687. As to the method:
as §1

Another assay deals with ANP32B, Q92688. How it is done:
as §1

A further assay concerns the target HDGFL2, Q7Z4V5. How it is done: as §1
The target of a further assay is HIST1H1E, P10412. As to the method: as §1
The next assay concerns the target MACF1. As to the method: as §1
The target in another assay is MRPS5, P82675. As to the method: as §1
A further assay concerns the target NCL, P19338. How it is done: as §1
The next assay deals with NOLC1, Q14978. As to the method: as §1
The next assay has as its target NTMT1, Q9BV86. As to the method:
as §1

Another assay deals with NUCKS1, Q9H1E3. As to the method: as §1
The next assay has as its target OGFR, Q9NZT2. How it is done:
as §1

The next assay has as its target PCYT1A, P49585. How it is done:
as §1

In the next assay the target is PDS5B, Q9NTI5. How it is done: as §1
The target in a further assay is PSMD1, Q99460. As to the method: as §1
A further assay deals with PSPC1, Q8WXF1. As to the method: as §1
A further assay concerns the target PTMA, P06454. How it is done:
as §1

The target in a further assay is RFC5, P40937. As to the method:
as §1

The target of another assay is RTF1, Q92541. How it is done:
as §1

The next assay concerns the target SET, Q01105. How it is done:
as §1

The next assay has as its target SRSF2, Q01130. As to the method: as §1
The target in the next assay is TXNDC5, Q8NBS9. How it is done:
as §1

Another assay addresses UTP14A, Q9BVJ6. As to the method: as §1
The next assay deals with WDR82, Q6UXN9. As to the method: as §1
The next assay addresses ZC3H18, Q86VM9. How it is done: as §1
The target in the next assay is ADAM29, Q9UKF5. How it is done:
as §1

Another assay addresses RBM4, Q9BWF3. How it is done:
as §1

Another assay deals with ADNP, Q9H2P0. How it is done: as §1
The next assay addresses AK4, P27144. How it is done:
as §1

Another assay deals with AP3B1, O00203. How it is done: as §1
The target in another assay is ATP5PD, O75947. How it is done:
as §1

In a further assay the target is BAG2, O95816. How it is done: as §1
For a further assay, the target named is CENPE, Q02224. How it is done: as §1
Another assay addresses CKS2, P33552. As to the method: as §1
A further assay has as its target DDX18, Q9NVP1. As to the method:
as §1

Another assay concerns the target DNAJA2, O60884. As to the method:
as §1

For another assay, the target named is EIF5, P55010. As to the method:
as §1

The target in a further assay is FLII, Q13045. How it is done: as §1
Another assay addresses HLA-B. How it is done: as §1
For the next assay, the target named is IGLC3, P0DOY3. How it is done:
as §1

The next assay addresses INTS3, Q68E01. How it is done: as §1
A further assay deals with MAP7, Q14244. How it is done: as §1
The next assay deals with MAPK1, P28482. How it is done: as §1
A further assay has as its target MKI67, P46013. How it is done:
as §1

The target of a further assay is MRPL11, Q9Y3B7. How it is done:
as §1

The target of another assay is MRPL19, P49406. How it is done: as §1
Another assay concerns the target MRPS7, Q9Y2R9. As to the method:
as §1

For a further assay, the target named is NDUFA5, Q16718. As to the method:
as §1

The next assay concerns the target NKAP, Q8N5F7. How it is done:
as §1

The next assay addresses NSA2, O95478. How it is done:
as §1

In a further assay the target is ODF2, Q5BJF6. As to the method:
as §1

In the next assay the target is PCM1, Q15154. How it is done: as §1
A further assay addresses POLE, Q07864. As to the method:
as §1

A further assay addresses PPIL2, Q13356. How it is done: as §1
For a further assay, the target named is PPP2R5D, Q14738. How it is done: as §1
The target in a further assay is PSMC3, P17980. How it is done:
as §1

In another assay the target is PUM1, Q14671. How it is done:
as §1

The next assay addresses RPUSD4, Q96CM3. How it is done:
as §1

The target in another assay is RTCB, Q9Y3I0. How it is done:
as §1

A further assay addresses SDAD1, Q9NVU7. How it is done: as §1
Another assay addresses SEC63, Q9UGP8. How it is done: as §1
The target in the next assay is SMARCAD1, Q9H4L7. How it is done:
as §1

Another assay deals with SNRNP70, P08621. As to the method:
as §1

The target of a further assay is SYAP1, Q96A49. As to the method:
as §1

The next assay addresses TRMT5, Q32P41. How it is done:
as §1

Another assay concerns the target ZFC3H1, O60293. How it is done: as §1
The target in the next assay is ZNF207, O43670. As to the method: as §1

The list shows a part of the results. The list holds hits alone, and they repeat only in part.

B1: EBAG9 (peptide)
chain: MLRSRVGDWAVGYRP
B1: the “PRISMA enrichment of interactor (log2)” value with ADAR, P55265 amounted to 5.45; in the assay with DHX9, Q08211, 7.06; with FIP1L1, Q6UN15, 5.93; in the assay with GNL3L, Q9NVN8, 5.48; with HCFC1, P51610, 5.23; in the assay with MPO, P05164, 5.27. Moreover, the “PRISMA enrichment of interactor (log2)” value with MRPL4, Q9BYD3 worked out at 5.52; with NDUFB10, O96000, 4.63; with PSMC4, P43686 it was 4.75; with TMEM256-PLSCR3, 5.51; with TUBB6, Q9BUF5 it was 5.59.

B2: ZEB2 (peptide)
chain: SPTEKKKKKMSLEEA
For the molecule B2, the “PRISMA enrichment of interactor (log2)” value was determined as 4.88 with ADAR, P55265; 8.76 with ANP32A, P39687; 6.37 with ANP32B, Q92688; 4.5 with HDGFL2, Q7Z4V5; 5.9 with HIST1H1E, P10412; 5.62 with MACF1. For the same molecule, the “PRISMA enrichment of interactor (log2)” value in the assay with MRPS5, P82675 came to 6.13; with NCL, P19338, 7.01; in the assay with NOLC1, Q14978, 6.3; with NTMT1, Q9BV86 it was 5.25; with NUCKS1, Q9H1E3 it was 4.6; with OGFR, Q9NZT2, 8.68. In addition, the “PRISMA enrichment of interactor (log2)” value amounted to 6.44 in the assay with PCYT1A, P49585; 4.62 in the assay with PDS5B, Q9NTI5; 6.74 in the assay with PSMD1, Q99460; 4.71 in the assay with PSPC1, Q8WXF1; 7.89 with PTMA, P06454; 5.64 with RFC5, P40937. Besides, the “PRISMA enrichment of interactor (log2)” value with RTF1, Q92541 turned out to be 4.43; with SET, Q01105 it was 6.7; with SRSF2, Q01130, 5.23; in the assay with TXNDC5, Q8NBS9, 4.76; in the assay with UTP14A, Q9BVJ6 it was 5; with WDR82, Q6UXN9 it was 4.63. The “PRISMA enrichment of interactor (log2)” value in the assay with ZC3H18, Q86VM9 was 4.59.

B3: BANCR (peptide)
chain: SCVRSKNLLVGSGLG
For the molecule B3, the “PRISMA enrichment of interactor (log2)” value in the assay with ADAM29, Q9UKF5 was determined as 10.9; in the assay with RBM4, Q9BWF3, 4.71.

B4: IDI2-AS1 (peptide)
chain: EMVMLVAPFRQSSSL
Take B4: the “PRISMA enrichment of interactor (log2)” value with ADNP, Q9H2P0 turned out to be 7.25; in the assay with AK4, P27144 it was 6.07; with AP3B1, O00203 it was 5.23; in the assay with ATP5PD, O75947, 4.68; with BAG2, O95816, 4.42; with CENPE, Q02224 it was 6.96. The “PRISMA enrichment of interactor (log2)” value with CKS2, P33552 is 5.83; with DDX18, Q9NVP1, 4.82; with DNAJA2, O60884, 12.2; in the assay with EIF5, P55010, 5.57; in the assay with FLII, Q13045, 6.84; in the assay with HLA-B, 6.83. Further, the “PRISMA enrichment of interactor (log2)” value in the assay with IGLC3, P0DOY3 was 10.7; with INTS3, Q68E01, 3.69; with MAP7, Q14244 it was 4.35; with MAPK1, P28482, 5.1; with MKI67, P46013, 5.59; with MRPL11, Q9Y3B7 it was 6.78. In addition, the “PRISMA enrichment of interactor (log2)” value in the assay with MRPL19, P49406 was 5.73; in the assay with MRPS7, Q9Y2R9, 5.9; with NDUFA5, Q16718, 8.25; in the assay with NKAP, Q8N5F7 it was 5.19; with NSA2, O95478, 5.9; in the assay with ODF2, Q5BJF6, 5.01. For the same molecule, the “PRISMA enrichment of interactor (log2)” value with PCM1, Q15154 is 5.59; with POLE, Q07864 it was 5.19; in the assay with PPIL2, Q13356 it was 5.65; with PPP2R5D, Q14738, 8.23; with PSMC3, P17980, 4.8; with PUM1, Q14671 it was 4.86. Also, the “PRISMA enrichment of interactor (log2)” value with RPUSD4, Q96CM3 was 6.08; with RTCB, Q9Y3I0, 5.19; with SDAD1, Q9NVU7 it was 8.88; with SEC63, Q9UGP8, 4.72; with SMARCAD1, Q9H4L7 it was 6.79; with SNRNP70, P08621, 5.8. The “PRISMA enrichment of interactor (log2)” value came to 4.21 in the assay with SYAP1, Q96A49; 8.6 with TRMT5, Q32P41; 4.17 in the assay with ZFC3H1, O60293; 5.14 in the assay with ZNF207, O43670.
